Reference: publication PMC8877947
Results are given in words; binding and its absence hold for the method and conditions named. Binding seen in cells or lysates may run through a third protein. Some results given as binding are weak or reduced against the parent protein; the word gives no strength.

T1: barrier-to-autointegration factor-like protein (BAF-L) (mouse (endogenous in testis)) (UniProt Q8BVR0)
T1 sequence: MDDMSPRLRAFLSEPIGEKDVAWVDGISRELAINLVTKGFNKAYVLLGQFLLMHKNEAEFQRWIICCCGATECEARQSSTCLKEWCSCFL

T2: protamine 1 (mouse (endogenous in testis)) (UniProt P02319)
T2 sequence: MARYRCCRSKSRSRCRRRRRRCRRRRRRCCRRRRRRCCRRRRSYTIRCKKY


Legend:
[1] = target: T1, barrier-to-autointegration factor-like protein (BAF-L) (mouse (endogenous in testis)); assay: co-IP; testis lysate (50 mM Tris, 150 mM NaCl, 0.1-0.5% Tween 20, pH 7.5) precipitated with BAF-L antibody on protein A/G magnetic beads, 1 h at 4 °C; blots for histones H2A, H2B, H3, H4 and protamine 1
[2] = target: T2, protamine 1 (mouse (endogenous in testis)); assay: co-IP; reverse: testis lysate (50 mM Tris, 150 mM NaCl, 0.1-0.5% Tween 20, pH 7.5) precipitated with histone H3, histone H4 or protamine 1 antibody on protein A/G magnetic beads, 1 h at 4 °C; blot for BAF-L

binding [1]	binding [2]	Binder
binds		protamine 1 (protein, UniProt P02319 1-51) MARYRCCRSKSRSRCRRRRRRCRRRRRRCCRRRRRRCCRRRRSYTIRCKKY
	binds	barrier-to-autointegration factor-like protein (BAF-L) (protein, UniProt Q8BVR0 1-90) MDDMSPRLRAFLSEPIGEKDVAWVDGISRELAINLVTKGFNKAYVLLGQFLLMHKNEAEFQRWIICCCGATECEARQSSTCLKEWCSCFL
